Holding throughout (test): cryo-EM structure
Test [1] concerns the target human LHCGR (residues 27-699) with the constitutively active mutation S277I (human) (UniProt P22888).
Test [2] has as its target human LHCGR (residues 27-699), wild type (human) (UniProt P22888).
In the next test the target is CG α-subunit (human) (UniProt P01215).

By UniProt entry, the sequences of proteins in these tests, tags left out. Where a name states a change or a piece, a line headed by the entry shows the natural chain unless it says otherwise. Chains listed by the source or under a name are the forms on record and can include a tag or linker. Residues count along the entry.
human LHCGR (residues 27-699), wild type (P22888, residues 27-699): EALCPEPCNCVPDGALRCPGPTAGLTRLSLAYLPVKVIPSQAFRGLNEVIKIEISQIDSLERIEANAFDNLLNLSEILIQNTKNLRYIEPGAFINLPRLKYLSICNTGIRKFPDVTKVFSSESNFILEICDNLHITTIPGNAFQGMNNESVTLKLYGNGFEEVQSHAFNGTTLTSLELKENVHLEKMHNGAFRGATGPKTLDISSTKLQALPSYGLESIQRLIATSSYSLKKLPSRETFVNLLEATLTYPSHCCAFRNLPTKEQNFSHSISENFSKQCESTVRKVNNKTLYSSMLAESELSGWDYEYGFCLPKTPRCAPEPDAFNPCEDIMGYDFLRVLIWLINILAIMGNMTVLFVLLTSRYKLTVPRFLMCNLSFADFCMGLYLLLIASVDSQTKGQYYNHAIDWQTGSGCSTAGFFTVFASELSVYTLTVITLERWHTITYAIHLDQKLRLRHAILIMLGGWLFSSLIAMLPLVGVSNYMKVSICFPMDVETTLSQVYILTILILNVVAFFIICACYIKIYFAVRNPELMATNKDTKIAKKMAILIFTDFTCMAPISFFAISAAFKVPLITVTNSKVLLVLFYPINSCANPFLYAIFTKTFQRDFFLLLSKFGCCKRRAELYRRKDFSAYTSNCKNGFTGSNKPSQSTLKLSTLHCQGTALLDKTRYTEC
human LHCGR (residues 27-699) with the constitutively active mutation S277I (P22888, form named): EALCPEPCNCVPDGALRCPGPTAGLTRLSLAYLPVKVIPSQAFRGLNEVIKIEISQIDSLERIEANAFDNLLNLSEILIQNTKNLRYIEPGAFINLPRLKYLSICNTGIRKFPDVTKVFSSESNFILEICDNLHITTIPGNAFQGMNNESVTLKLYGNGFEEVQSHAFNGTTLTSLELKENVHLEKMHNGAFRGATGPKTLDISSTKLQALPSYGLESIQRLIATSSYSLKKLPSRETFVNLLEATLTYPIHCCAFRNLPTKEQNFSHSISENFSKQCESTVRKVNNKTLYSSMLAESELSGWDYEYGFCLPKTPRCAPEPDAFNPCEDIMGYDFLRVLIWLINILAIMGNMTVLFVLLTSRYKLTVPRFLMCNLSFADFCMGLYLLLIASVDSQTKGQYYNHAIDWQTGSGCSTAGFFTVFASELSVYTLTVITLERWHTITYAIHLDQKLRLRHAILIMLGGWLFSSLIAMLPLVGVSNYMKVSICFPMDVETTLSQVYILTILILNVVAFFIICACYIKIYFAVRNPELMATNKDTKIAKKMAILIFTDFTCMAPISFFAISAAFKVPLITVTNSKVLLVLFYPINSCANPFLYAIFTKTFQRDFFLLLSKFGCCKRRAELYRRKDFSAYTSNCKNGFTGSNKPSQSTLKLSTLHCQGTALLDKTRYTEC
UniProt P01215, residues 25-116: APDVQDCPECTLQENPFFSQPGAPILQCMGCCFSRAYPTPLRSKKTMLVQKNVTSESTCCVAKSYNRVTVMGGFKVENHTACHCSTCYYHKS

Our source for the binding values is publication doi:10.1101/2021.08.03.454894.

These are yes or no findings as the source states them, for the method shown. Some binding calls cover weakened binding; strength is not graded here.

For “CG α-subunit (from UniProt P01215 25-116)”, in test [1], the binding entry is on record as “binds”.
Turning to “human chorionic gonadotropin (CG), native heterodimer of α- and β-subunit (from UniProt P01215;P0DN86) (complex)”, the binding result in test [1] and in test [2] was “binds” in each case.
Turning to “human LHCGR (residues 27-699) with the constitutively active mutation S277I (from UniProt P22888 27-699) (receptor)”, the binding entry in test [1] is “no binding”.
Take “CG β-subunit (from UniProt P0DN86 21-165)”: the binding result (in test [1]; in the test with CG α-subunit (human)) was “binds” each time.
